Legend:
[1] = Transparency of transparent PVC film, plasticiser compatibility; settings: for Compatibilty: Transparency % Transparent: transparent PVC film, 50 phr plasticiser; for delta vs. ref. (transparency): versus DINP
[2] = Plastisole gelation curve (viscosity vs. temperature, rheology meter); settings: 100 phr PVC, 50 phr Plasticizer, 3 phr ESBO, 2 phr Ca/Zn Stab.; relative to reference DINP
[3] = Plastisole viscosity after 24 h and thickening; settings: plastisol, 50 phr plasticizer; for viscosity after 24 h: relative to reference; for Thickening: relative to reference DINP
[4] = Shore A hardness of plastisole films; settings: for Plasticize Efficiency Shore A: plastisol film, 50 phr plasticizer, 200° C. 2 minutes, 1 mm
[5] = Dry blend process efficiency (mixing time to dry blend); settings: 67 phr formula, 88° C.
[6] = Cold flex via glass transition temperature (Tg) of compression moulded sheets; settings: for (33 phr) Cold Flex via Tg / (67 phr) Cold Flex via Tg: compression moulded sheets
[7] = Shore A hardness of compression moulded sheets (dry blend compound); settings: 67 phr formula

Row | SMILES | Compatibilty: Transparency % Transparent [1] [%] | delta vs. ref. (transparency) [1] [%] | Gelation (Visc. vs. Temp.) [2] | viscosity after 24 h [3] | Thickening [3] | Plasticize Efficiency % Difference vs. DOA ([4]; Shore A, plastisol, 50 phr) [%] | Plasticize Efficiency Shore A [4] [Shore A] | Dry Blend Process efficiency (mixing time), # min. to dry blend [5] [min] | (33 phr) Cold Flex via Tg [6] | (67 phr) Cold Flex via Tg [6] | Delta versus DINP (%) (33 phr Cold Flex) [6] | Delta versus DINP (%) (67 phr Cold Flex) [6] | Plasticize Efficiency % Difference vs. DINP ([4]; Shore A, plastisol, 50 phr) [%] | Plasticize Efficiency % better vs. DINP [7] [%]
1 | CC(C)CCCCCCOC(=O)CCC(=O)OCCCCCCC(C)C [DINS, diisononylsuccinate] | 77.60 | −12.12 |  |  |  |  |  |  |  |  |  |  |  | 
2 | CC(C)CCCCCCOC(=O)c1ccccc1 [INB, Isononyl Benzoate] |  |  | faster | signif. lower | higher |  |  |  |  |  |  |  |  | 
3 | CC(C)CCCCCCOC(=O)c1ccccc1C(=O)OCCCCCCC(C)C [DINP, Di-isononylphthalate] | 88.30 |  |  |  |  | −6.67 | 80 | 5.8 | −11.5 | −46 |  |  |  | 
4 | CCCCC(CC)COC(=O)CCCCC(=O)OCC(CC)CCCC (stereo not shown) [DOA, Di-octyladepate] |  |  | slower | signif. lower | slightly higher |  |  |  | −48.1 | −72.5 | 318 | 58 |  | 
5 | CCCCCC(CCC)COC(=O)CCC(=O)OCC(CCC)CCCCC (stereo not shown) [DPHS, di-(2-propylheptyl)succinate] | 58.10 | −34.20 |  |  |  |  |  |  |  |  |  |  |  | 
6 | CCCCC(CC)COC(=O)c1ccc(C(=O)OCC(CC)CCCC)cc1 (stereo not shown) [DOTP, Di-octyltherephthalate] |  |  | slower |  | less high | −10.67 | 83 | 7 | −10.9 | −41.4 | −5 | −10 | −3.75 | −2.8
